Test results published in PMC4632003.
Results are given in words; binding and its absence hold for the method and conditions named. For some of these results: In cells and extracts the contact can be indirect. Some entries that bind do so weakly or less than the wild type. For some of these results: Tags and fused reporters may be left off the sequences shown.

B1: Sam50 (protein, UniProt Q9Y512 1-469)
chain: MGTVHARSLEPLPSSGPDFGGLGEEAEFVEVEPEAKQEILENKDVVVQHVHFDGLGRTKDDIIICEIGDVFKAKNLIEVMRKSHEAREKLLRLGIFRQVDVLIDTCQGDDALPNGLDVTFEVTELRRLTGSYNTMVGNNEGSMVLGLKLPNLLGRAEKVTFQFSYGTKETSYGLSFFKPRPGNFERNFSVNLYKVTGQFPWSSLRETDRGMSAEYSFPIWKTSHTVKWEGVWRELGCLSRTASFAVRKESGHSLKSSLSHAMVIDSRNSSILPRRGALLKVNQELAGYTGGDVSFIKEDFELQLNKQLIFDSVFSASFWGGMLVPIGDKPSSIADRFYLGGPTSIRGFSMHSIGPQSEGDYLGGEAYWAGGLHLYTPLPFRPGQGGFGELFRTHFFLNAGNLCNLNYGEGPKAHIRKLAECIRWSYGAGIVLRLGNIARLELNYCVPMGVQTGDRICDGVQFGAGIRFL
B2: Tim23 (protein, UniProt O14925 1-209)
chain: MEGGGGSGNKTTGGLAGFFGAGGAGYSHADLAGVPLTGMNPLSPYLNVDPRYLVQDTDEFILPTGANKTRGRFELAFFTIGGCCMTGAAFGAMNGLRLGLKETQNMAWSKPRNVQILNMVTRQGALWANTLGSLALLYSAFGVIIEKTRGAEDDLNTVAAGTMTGMLYKCTGGLRGIARGGLTGLTLTSLYALYNNWEHMKGSLLQQSL
B3: His-tagged CHCHD6 CΔ46 variant (domain or fragment, UniProt Q9BRQ6 1-189)
chain: MGSTESSEGRRVSFGVDEEERVRVLQGVRLSENVVNRMKEPSSPPPAPTSSTFGLQDGNLRAPHKESTLPRSGSSGGQQPSGMKEGVKRYEQEHAAIQDKLFQVAKREREAATKHSKASLPTGEGSISHEEQKSVRLARELESREAELRRRDTFYKEQLERIERKNAEMYKLSSEQFHEAASKMESTIK

How the values were obtained:
[1] = target: T1, CHCHD6 (human (endogenous in HeLa)) (UniProt Q9BRQ6); assay: co-IP; IP of endogenous Mitofilin or CHCHD6 from HeLa lysate (control cells; Mitofilin IP also from CHCHD6-knockout cells) with antibody crosslinked to protein A Sepharose beads, overnight at 4 °C, washed with cold PBS; immunoblot
T1 sequence: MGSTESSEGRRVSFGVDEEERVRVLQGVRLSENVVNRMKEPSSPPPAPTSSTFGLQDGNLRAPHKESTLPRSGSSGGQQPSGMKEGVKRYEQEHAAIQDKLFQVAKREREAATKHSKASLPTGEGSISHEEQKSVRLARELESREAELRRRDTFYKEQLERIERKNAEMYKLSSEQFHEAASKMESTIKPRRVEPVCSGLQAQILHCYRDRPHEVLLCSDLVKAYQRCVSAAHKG

[2] = target: T2, Mitofilin (human (endogenous in HeLa)) (UniProt Q16891); assay: as above
T2 sequence: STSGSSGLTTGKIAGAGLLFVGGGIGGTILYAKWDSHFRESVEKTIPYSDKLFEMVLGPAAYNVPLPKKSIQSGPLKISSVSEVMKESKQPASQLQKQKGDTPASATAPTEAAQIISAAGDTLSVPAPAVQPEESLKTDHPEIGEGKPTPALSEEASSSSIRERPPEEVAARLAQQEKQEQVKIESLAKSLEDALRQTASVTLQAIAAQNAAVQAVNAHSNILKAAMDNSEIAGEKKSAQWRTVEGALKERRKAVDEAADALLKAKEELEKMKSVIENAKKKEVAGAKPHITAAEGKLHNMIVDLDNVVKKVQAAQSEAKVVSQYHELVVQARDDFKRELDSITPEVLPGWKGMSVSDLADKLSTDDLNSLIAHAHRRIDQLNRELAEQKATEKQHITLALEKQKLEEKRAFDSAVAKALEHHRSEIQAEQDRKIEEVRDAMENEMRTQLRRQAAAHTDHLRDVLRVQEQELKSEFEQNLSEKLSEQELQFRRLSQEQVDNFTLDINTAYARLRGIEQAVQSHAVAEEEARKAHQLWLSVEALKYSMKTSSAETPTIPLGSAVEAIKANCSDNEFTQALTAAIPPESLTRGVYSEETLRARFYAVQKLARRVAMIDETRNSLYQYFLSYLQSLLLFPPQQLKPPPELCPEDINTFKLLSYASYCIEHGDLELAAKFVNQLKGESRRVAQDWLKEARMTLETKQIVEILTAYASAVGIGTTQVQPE

[3] = target: T3, GST-tagged Sam50 (human) (UniProt Q9Y512); assay: pull-down; GST pull-down: 10 μg purified GST-tagged protein, 10 μg His-tagged protein and glutathione Sepharose 4B in 1 ml PBS with protease inhibitor, overnight at 4 °C, washed five times with cold PBS; Western blot; both purified
T3 sequence: B1 chain

| Binder | binding [1] | binding [2] | binding [3] |
| --- | --- | --- | --- |
| B1 | binds | binds | – |
| B2 | – | binds | – |
| B3 | – | – | no binding |
